Test results as given in PubChem BioAssay AID1347075 (National Center for Advancing Translational Sciences (NCATS), 2019).
In all, about 400,000 compounds went through this assay and about 5,500 (1.4%) were called active. This list was built around the results that the source calls inconclusive (neither active nor inactive); the mix of calls is not that of the screen. Calls come from the whole dose curve; as a rule, active = well fitted cell-killing curve with a large enough effect; inconclusive = small, poorly fitted or top-dose-only effect, or effect the other way; inactive = flat fitted curve, though single readings scatter. Potencies beside an inconclusive call are fits to weak or partial responses and may not hold up.
Potency is the fitted concentration of half-maximal effect.

Test: qHTS assay for MDR1-selective chemotherapeutics: Primary screen using the parental adenocarcinoma cell KB-3-1; note: nearly all actives have a fitted effect of over 60% in size
Details: KB-3-1 viability, CellTiter-Glo ATP luminescence, 72 h; series mostly up to 46.1 µM
Method in brief: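 Multi-concentration cytotoxicity screen in KB-3-1 cells grown in DMEM lacking phenol red with 10% FBS. After 72 h at 37 °C with compound, ATP-dependent luminescence was recorded.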
With `O=[N+]([O-])c1ccccc1S(=O)(=O)N1CCN(S(=O)(=O)c2ccc3c(c2)OCCO3)CC1` the Potency was “inactive”.
In the case of `O=C(NC(c1ccc(Cl)cc1)c1cc(Cl)c2cccnc2c1O)c1cccnc1` (stereo not drawn), the Potency is reported as inconclusive: 2.31 µM [cytotoxic, partial curve, poor fit].
With `CC(C(=O)NC1CCCC1)N(C(=O)c1ccc(-c2ccccc2)[nH]1)c1ccccc1F` (stereo not drawn) the Potency was inconclusive: 29.1 µM [cytotoxic, single point].
With `CCN(Cc1ccncc1)Cc1nc(Cc2ccccc2Cl)no1` the Potency was inconclusive: 25.9 µM [cytotoxic, partial curve, poor fit].
In the case of `COc1ccc(S(=O)(=O)Nc2ccc(-c3ccc4nncn4n3)cc2)c(OC)c1`, the Potency is reported as inconclusive: 29.1 µM [cytotoxic, single point].
In the case of `COc1ccc(NC2=Nc3cccc4cccc2c34)cc1`, the Potency is reported as “inactive”.
For `N#CCCSc1ncnc2c1oc1ccccc12`, the Potency was inconclusive: 29.1 µM [cytotoxic, single point].
For `Cc1ccc(NC(=O)CSc2nc3c(oc4ccccc43)c(=O)n2Cc2ccco2)cc1`, the Potency was “inactive”.
With `Nc1nc(NCc2ccco2)nc(N2CCCCCC2)c1[N+](=O)[O-]` the Potency was inconclusive: 29.1 µM [cytotoxic, single point].
In the case of `COC(=O)[C@]12CCCCC=C1N(CCC1=CCCCC1)C(=O)[C@H](CC(=O)NCC13CC4CC(CC(C4)C1)C3)C2`, the Potency is reported as inconclusive: 16.4 µM [cytotoxic, single point].
With `Cc1cc(CC(C)C)n(-c2nc3ccccc3c(=O)n2OCc2ccccc2)n1` the Potency was inconclusive: 23.1 µM [cytotoxic, single point].
For `COc1ccc(-c2csc(N3CCN(C(=O)c4ccco4)CC3)n2)cc1`, the Potency was inconclusive: 23.1 µM [cytotoxic, partial curve, poor fit].
In the case of `O=C(Nc1ccc2c(c1)OCO2)C(=O)c1c[nH]c2ccccc12`, the Potency is reported as active: 6.51 µM.
For `CCC1(c2ccc(F)cc2)NC(=O)N(CC(=O)Nc2ccc(C)c(S(=O)(=O)N3CCOCC3)c2)C1=O` (stereo not drawn), the Potency was inconclusive: 18.4 µM [cytotoxic, single point].
With `CC[n+]1c(/C=C2\C=C(C)CC(C)(C)C2)sc2ccccc21` the Potency was “inactive”.
With `CCOC(=O)[C@]12CCCC=C1N(Cc1ccc3c(c1)OCO3)C(=O)[C@H](CC(=O)NCCCCc1ccccc1)C2` the Potency was inconclusive: 29.1 µM [cytotoxic, single point].
In the case of `NC(=O)C1CCN(C(=O)COc2ccc(S(=O)(=O)NC3CCCC3)cc2)CC1`, the Potency is reported as inconclusive: 4.11 µM [rising, partial curve, poor fit].
For `CC(C)[C@@H]1Cc2[nH][nH]c(=O)c2[C@H](C(C)C)O1`, the Potency was “inactive”.
In the case of `CCc1nc2c(sc3nc4c(cc32)COC(C)(C)C4)c(=O)n1Cc1ccco1`, the Potency is reported as inconclusive: 29.1 µM [cytotoxic, single point].
For `COc1c(S(=O)(=O)N2CCCCC2)ccc2c(S(=O)(=O)N3CCCCC3)cccc12`, the Potency was inconclusive: 29.1 µM [cytotoxic, single point].
In the case of `COc1ccc2c(ccc[n+]2CC(=O)c2ccc(C)cc2)c1`, the Potency is reported as inconclusive: 16.4 µM [cytotoxic, single point].
With `O=C(Cc1ccsc1)NNC(=O)c1ccccc1O` the Potency was inconclusive: 16.4 µM [cytotoxic, single point].
With `Cc1ccc2nc(NS(=O)(=O)c3ccc(Cl)cc3)c(Nc3ccc(C(=O)O)cc3)nc2c1` the Potency was inconclusive: 29.1 µM [cytotoxic, single point].
With `CCOc1ccccc1C(C(=O)NC1CCCCC1)N(C(=O)c1csnn1)C1CC1` (stereo not drawn) the Potency was “inactive”.
In the case of `Cc1nnc2c(N3CCN(c4ccccc4)CC3)nc3ccc(C(=O)c4ccccc4)cc3n12`, the Potency is reported as “inactive”.
With `CCCNC(=O)c1cc(C2CCCCN2C(=O)c2cc(F)ccc2C)on1` (stereo not drawn) the Potency was “inactive”.
In the case of `Fc1ccc2cnc(-c3ccccc3F)cc2c1`, the Potency is reported as “inactive”.
For `Cc1ccc(C(=O)N/C(=C\c2ccc([N+](=O)[O-])cc2)C(=O)NCCc2ccccc2)cc1`, the Potency was “inactive”.
For `O=C(Cn1cnc2c(nnn2-c2ccccc2)c1=O)NCCc1ccccc1`, the Potency was inconclusive: 8.2 µM [rising, partial curve].
With `CCCc1c(-c2ccccc2F)ncn1Cc1ccccc1OC` the Potency was active: 20.6 µM.
For `CCCCn1c(N)c(N(CCC(C)C)C(=O)COC(=O)/C=C/c2ccc(F)cc2)c(=O)[nH]c1=O`, the Potency was inconclusive: 29.1 µM [cytotoxic, single point].
In the case of `C[C@@H]1CN([C@H](C)CO)C(=O)CCCn2nncc2CO[C@@H]1CN(C)S(=O)(=O)c1cn(C)cn1`, the Potency is reported as “inactive”.
With `Cc1nnc(NC(=O)C2c3ccccc3Oc3ccccc32)s1` the Potency was inconclusive: 29.1 µM [cytotoxic, single point].
In the case of `Oc1ccc(CN2CCN(Cc3ccccc3)CC2)c2cccnc12`, the Potency is reported as inconclusive: 29.1 µM [cytotoxic, single point].
In the case of `Cc1ccc(NC(=O)Cn2c(=O)n(-c3ccc(C)cc3)c(=O)c3ccc(C(=O)NCc4ccccc4Cl)cc32)cc1`, the Potency is reported as inconclusive: 32.6 µM [cytotoxic, single point].
In the case of `CCOC(=O)c1cccc(NC(=O)CCS(=O)(=O)c2ccc(Br)s2)c1`, the Potency is reported as “inactive”.
In the case of `COc1ccc(NC(=O)c2cc(-c3ccc4c(c3)OCO4)on2)c(OC)c1`, the Potency is reported as “inactive”.
In the case of `CCc1c(C#N)c(SCCC(=O)Nc2ccc(F)cc2)nc2c1C(=O)CC(C)(C)C2`, the Potency is reported as inconclusive: 23.1 µM [cytotoxic, single point].
In the case of `O=C(Nc1ccc(Oc2ccccc2)cc1)c1cnc2n(c1=O)CCS2`, the Potency is reported as inconclusive: 20.6 µM [cytotoxic, single point].
With `COc1ccc(C)c2sc(N(CCN(C)C)C(=O)/C=C/c3cccs3)nc12` the Potency was inconclusive: 20.6 µM [cytotoxic, single point].
For `CCOc1cnn(Cc2ccccc2)c(=O)c1SCc1ccccc1`, the Potency was inconclusive: 20.6 µM [rising, single point].
With `CC(=O)c1ccccc1Oc1nc(CN2CCOCC2)nc2scc(-c3cccs3)c12` the Potency was inconclusive: 32.6 µM [cytotoxic, single point].
With `COc1ccc2cc3cc(C(=O)Nc4ccccc4N4CCN(C)CC4)oc3nc2c1` the Potency was inconclusive: 20.6 µM [cytotoxic, single point].
